{
  "source": "paper PMC5041986",
  "about": "(Oncotarget, 2016)",
  "test_system": "RT-112 cells",
  "experiment": "cDNA microarray analysis of differential gene expression",
  "assay_type": "cell-based",
  "conditions": "4 μM, 8 h, log2 |fold change| ≥ 1, P < 0.05",
  "data": [
    {"compound": "CCN1CCN(c2ccc(Nc3ncnc(N(C)C(=O)Nc4c(Cl)c(OC)c(Cl)c(OC)c4Cl)n3)cc2)CC1", "note": "[MPT0L145]", "values": [
      {"measurement": "number of downregulated genes", "value": 426},
      {"measurement": "number of upregulated genes", "value": 465}
    ]}
  ]
}
